Measurements: PMC3397948, “Cytoplasmic Sulfurtransferases in the Purple Sulfur Bacterium Allochromatium vinosum: Evidence for Sulfur Transfer from DsrEFH to DsrC” (PLoS ONE, 2012)
Positions count from the first letter of the chain named. Results are given in words; binding and its absence hold for the method and conditions named. Some binding calls cover weakened binding; strength is not graded here. One block for each binder: values may come before it.

What was measured:
[1] = molecular target: T1, DsrEFH from Allochromatium vinosum (DsrE2F2H2 heterohexamer), wild type (Allochromatium vinosum) (UniProt O87896+O87897+O87898); experiment: native gel or EMSA; 200 pmol DsrEFH and 400 pmol DsrC incubated 30 min at 30°C in 5 mM HEPES pH 7.8, 0.1 M KCl, 0.01% Tween 20, 25 µM TCEP; native polyacrylamide gel (7.5%) at 4°C; shifted bands cut out and run on SDS-PAGE (15%); both purified
T1 sequence 1: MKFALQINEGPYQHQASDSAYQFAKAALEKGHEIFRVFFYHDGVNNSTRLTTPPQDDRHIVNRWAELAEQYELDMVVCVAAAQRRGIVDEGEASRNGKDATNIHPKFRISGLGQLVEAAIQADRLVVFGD
T1 sequence 2: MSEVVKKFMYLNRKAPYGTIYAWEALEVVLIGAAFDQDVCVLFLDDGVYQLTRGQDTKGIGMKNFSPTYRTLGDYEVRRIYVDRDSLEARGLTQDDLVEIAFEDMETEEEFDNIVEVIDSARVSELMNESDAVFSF
T1 sequence 3: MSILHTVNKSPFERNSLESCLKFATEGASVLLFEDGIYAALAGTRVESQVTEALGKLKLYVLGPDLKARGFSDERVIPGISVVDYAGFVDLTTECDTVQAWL

[2] = molecular target: T1, DsrEFH from Allochromatium vinosum (DsrE2F2H2 heterohexamer), wild type (Allochromatium vinosum); experiment: SPR; Biacore 2000, CM5 chip, DsrEFH amine-coupled (~600 RU); DsrC proteins reduced with 25 µM TCEP and injected (40-1280 nM wild type; 80 nM for the comparison of mutants), 25°C, 10 mM HEPES, 150 mM NaCl, 3 mM EDTA, 0.005% Tween 20, pH 7.4; both purified

binding [1]: binds
binding [2]: binds
B1: DsrC from Allochromatium vinosum, wild type (natural protein, UniProt O87899 1-112, looked up)
chain: MADTIEVDGKQFAVDEEGYLSNLNDWVPGVADVMAKQDNLELTEEHWDIINFLREYYEEYQIAPAVRVLTKAVGKKLGKEKGNSKYLYSLFPYGPAKQACRFAGLPKPTGCV
notes: DsrC, Allochromatium vinosum; conserved Cys100 and Cys111 (Cys111 in the penultimate position of the protein); Reduced with 25 uM TCEP before SPR; also called DsrC wild type; DsrC wt; source: overproduced and purified as described earlier [22], [8], [3]; not shown: His-tag, N-terminal, kept

binding [2]: binds weakly
B2: DsrC-Ser100/111 double mutant (DsrC with Cys100 and Cys111 replaced by serine) (protein, UniProt O87899 1-112)
chain: B1 chain with C100S, C111S

binding [2]: binds
B3: DsrC-Ser100 (DsrC with Cys100 replaced by serine) (protein, UniProt O87899 1-112)
chain: B1 chain with C100S

binding [2]: binds weakly
B4: DsrC-Ser111 (DsrC with Cys111 replaced by serine) (protein, UniProt O87899 1-112)
chain: B1 chain with C111S
